# The other results are listed elsewhere or left out.
# B1: Intelectin 1 (Homo sapiens), Q8WWA0 (protein)
# chain: MNQLSFLLFLIATTRGWSTDEANTYFKEWTCSSSPSLPRSCKEIKDECPSAFDGLYFLRTENGVIYQTFCDMTSGGGGWTLVASVHENDMRGKCTVGDRWSSQQGSKAVYPEGDGNWANYNTFGSAEAATSDDYKNPGYYDIQAKDLGIWHVPNKSPMQHWRNSSLLRYRTDTGFLQTLGHNLFGIYQKYPVKYGEGKCWTDNGPVIPVVYDFGDAQKTASYYSPYGQREFTAGFVQFRVFNNERAANALCAGMRVTGCNTEHHCIGGGGYFPEASPQQCGDFSGFDWSGYGTHVGYSSSREITEAAVLLFYR
# What was measured:
# Test in all cases: glycan array binding signal (z-score within array); higher = stronger binding
# Settings in all cases: glycan notation: IUPAC condensed, linker removed
# [1] = biological target: Neu5Ac(a2-6)Gal(b1-4)GlcNAc(b1-2)Man(a1-6)[Gal(b1-4)GlcNAc(b1-2)Man(a1-3)]Man(b1-4)GlcNAc(b1-4)GlcNAc
# Procedure, shortened: (§1)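 Arrays were curated from the Consortium for Functional Glycomics database, 3228 in total, and kept only where the protein sequence was available. Binding is expressed as a within-array Z-score. This score was averaged across arrays of the same protein sequence at different concentrations or buffers and across linkers, and negative values can be read as non-binding.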
# [2] = biological target: Neu5Ac(a2-6)Gal(b1-4)GlcNAc(b1-2)Man(a1-6)[GlcNAc(b1-2)Man(a1-3)]Man(b1-4)GlcNAc(b1-4)GlcNAc
# Procedure, shortened: as §1
# [3] = biological target: Neu5Ac(a2-6)Gal(b1-4)GlcNAc(b1-2)Man(a1-6)[Man(a1-3)]Man(b1-4)GlcNAc(b1-4)GlcNAc
# Procedure, shortened: as §1
# [4] = biological target: Neu5Ac(a2-6)Gal(b1-4)GlcNAc(b1-3)Gal(b1-3)GlcNAc
# Procedure, shortened: as §1
# [5] = biological target: Neu5Ac(a2-6)Gal(b1-4)GlcNAc(b1-3)Gal(b1-4)GlcNAc
# Procedure, shortened: as §1
# [6] = biological target: Neu5Ac(a2-6)Gal(b1-4)GlcNAc(b1-3)Gal(b1-4)GlcNAc(b1-3)Gal(b1-4)GlcNAc
# Procedure, shortened: as §1
# [7] = biological target: Neu5Ac(a2-6)Gal(b1-4)GlcNAc(b1-3)Gal(b1-4)[Fuc(a1-3)]GlcNAc(b1-3)Gal(b1-4)[Fuc(a1-3)]GlcNAc
# Procedure, shortened: as §1
# [8] = biological target: Neu5Ac(a2-6)Gal(b1-4)GlcNAc(b1-3)GalNAc
# Procedure, shortened: as §1
# [9] = biological target: Neu5Ac(a2-6)Gal(b1-4)GlcNAc6S
# Procedure, shortened: as §1
# [10] = biological target: Neu5Ac(a2-6)GalNAc
# Procedure, shortened: as §1
# [11] = biological target: Neu5Ac(a2-6)GalNAc(b1-4)GlcNAc
# Procedure, shortened: as §1
# [12] = biological target: Neu5Ac(a2-6)GlcNAc(b1-4)GlcNAc
# Procedure, shortened: as §1
# [13] = biological target: Neu5Ac(a2-6)GlcNAc(b1-4)GlcNAc(b1-4)GlcNAc
# Procedure, shortened: as §1
# [14] = biological target: Neu5Ac(a2-8)Neu5Ac
# Procedure, shortened: as §1
# [15] = biological target: Neu5Ac(a2-8)Neu5Ac(a2-3)Gal(b1-3)GalNAc(b1-4)[Neu5Ac(a2-8)Neu5Ac(a2-3)]Gal(b1-4)Glc
# Procedure, shortened: as §1
# [16] = biological target: Neu5Ac(a2-8)Neu5Ac(a2-3)Gal(b1-4)Glc
# Procedure, shortened: as §1
# [17] = biological target: Neu5Ac(a2-8)Neu5Ac(a2-3)[Gal(b1-3)GalNAc(b1-4)]Gal(b1-4)Glc
# Procedure, shortened: as §1
# [18] = biological target: Neu5Ac(a2-8)Neu5Ac(a2-3)[GalNAc(b1-4)]Gal(b1-4)Glc
# Procedure, shortened: as §1
# [19] = biological target: Neu5Ac(a2-8)Neu5Ac(a2-8)Neu5Ac
# Procedure, shortened: as §1
# [20] = biological target: Neu5Ac(a2-8)Neu5Ac(a2-8)Neu5Ac(a2-3)Gal(b1-4)Glc
# Procedure, shortened: as §1
# [21] = biological target: Neu5Ac(a2-8)Neu5Ac(a2-8)Neu5Ac(a2-3)[GalNAc(b1-4)]Gal(b1-4)Glc
# Procedure, shortened: as §1
# [22] = biological target: Neu5Ac(a2-8)Neu5Ac(a2-8)Neu5Ac(a2-8)Neu5Ac(a2-3)[GalNAc(b1-4)]Gal(b1-4)Glc
# Procedure, shortened: as §1
# [23] = biological target: Neu5Ac(b2-6)Gal(b1-4)GlcNAc
# Procedure, shortened: as §1
# [24] = biological target: Neu5Ac(b2-6)GalNAc
# Procedure, shortened: as §1
# [25] = biological target: Neu5Ac9Ac(a2-3)Gal(b1-3)GlcNAc
# Procedure, shortened: as §1
# [26] = biological target: Neu5Ac9Ac(a2-3)Gal(b1-4)GlcNAc
# Procedure, shortened: as §1
# [27] = biological target: Neu5Ac9Ac(a2-6)Gal(b1-4)GlcNAc
# Procedure, shortened: as §1
# [28] = biological target: Neu5Gc(a2-3)Gal(b1-3)GlcNAc
# Procedure, shortened: as §1
# [29] = biological target: Neu5Gc(a2-3)Gal(b1-3)[Fuc(a1-4)]GlcNAc
# Procedure, shortened: as §1
# [30] = biological target: Neu5Gc(a2-3)Gal(b1-4)Glc
# Procedure, shortened: as §1
# [31] = biological target: Neu5Gc(a2-3)Gal(b1-4)GlcNAc
# Procedure, shortened: as §1
# [32] = biological target: Neu5Gc(a2-3)Gal(b1-4)[Fuc(a1-3)]GlcNAc
# Procedure, shortened: as §1
# [33] = biological target: Neu5Gc(a2-6)Gal(b1-4)GlcNAc
# Procedure, shortened: as §1
# [34] = biological target: Neu5Gc(a2-6)GalNAc
# Procedure, shortened: as §1
# [35] = biological target: Neu5Gc(b2-6)Gal(b1-4)GlcNAc
# Procedure, shortened: as §1
binder,measurement,setting,value
B1,glycan array binding signal (z-score),[1],-0.416
same,glycan array binding signal (z-score),[2],1.24
same,glycan array binding signal (z-score),[3],0.21
same,glycan array binding signal (z-score),[4],-0.051
same,glycan array binding signal (z-score),[5],-1.1
same,glycan array binding signal (z-score),[6],-0.649
same,glycan array binding signal (z-score),[7],0.681
same,glycan array binding signal (z-score),[8],0.629
same,glycan array binding signal (z-score),[9],-0.532
same,glycan array binding signal (z-score),[10],-0.44
same,glycan array binding signal (z-score),[11],0.53
same,glycan array binding signal (z-score),[12],-0.166
same,glycan array binding signal (z-score),[13],-0.643
same,glycan array binding signal (z-score),[14],-0.081
same,glycan array binding signal (z-score),[15],0.145
same,glycan array binding signal (z-score),[16],0.12
same,glycan array binding signal (z-score),[17],0.572
same,glycan array binding signal (z-score),[18],-0.219
same,glycan array binding signal (z-score),[19],-0.402
same,glycan array binding signal (z-score),[20],0.459
same,glycan array binding signal (z-score),[21],-0.731
same,glycan array binding signal (z-score),[22],0.332
same,glycan array binding signal (z-score),[23],0.463
same,glycan array binding signal (z-score),[24],0.144
same,glycan array binding signal (z-score),[25],0.121
same,glycan array binding signal (z-score),[26],-1.01
same,glycan array binding signal (z-score),[27],0.653
same,glycan array binding signal (z-score),[28],0.417
same,glycan array binding signal (z-score),[29],-0.969
same,glycan array binding signal (z-score),[30],-1.04
same,glycan array binding signal (z-score),[31],0.78
same,glycan array binding signal (z-score),[32],0.832
same,glycan array binding signal (z-score),[33],-0.17
same,glycan array binding signal (z-score),[34],0.523
same,glycan array binding signal (z-score),[35],0.526
